PubChem BioAssay AID1259314 | Drosophila RNAi Screening Center, 2017
Here is an unselected part of about 3,100 deposited reagents. 289 of them (9.3%) count as active. 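Active includes both higher and lower ATP than plate average; check the z-score sign for direction.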 A number with no mark means an inactive call. Not given: the amount of reagent.

- Screen: 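Transmembrane protein genes affecting ATP after manganese overload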 (primary screen)
- Cells: Drosophila S2R+ cells
- Reagents: long dsRNA against Drosophila genes
- Duration: 5 days (4 days knock-down, then 1 day metal exposure)
- Treatment: manganese chloride added to 15 mM for 24 hours
- Read-out: 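Cellular ATP measured by luciferase light, scaled to the plate mean, averaged across replicates and z-scored over plates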
- Direction: mean ATP z-score: higher = more ATP than the plate average, more viable cells under manganese
- Rule for the call: 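a mean ATP z-score past 1.5 in either direction is called active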
- Calls: active = strong ATP change, up or down; inactive = no strong ATP change

What did the screen give for if (inflated) [DRSC20341]?
mean ATP z-score: -0.0551

How did the screen score if (inflated) [DRSC39458]?
mean ATP z-score: -1.01

What did the screen give for CG14511 [DRSC14863]?
mean ATP z-score: 0.441

For CG14511 [DRSC26574], how do the results read?
mean ATP z-score: -1.27

How did the screen score CG11262 [DRSC09831]?
mean ATP z-score: -0.519

For CG11262 [DRSC39465], how do the results read?
mean ATP z-score: -0.375

How did the screen score CG13654 [DRSC14654]?
mean ATP z-score: -0.31

How did the screen score CG13654 [DRSC39888]?
mean ATP z-score: 0.0212

For VhaM9.7-c (Vacuolar H[+] ATPase M9.7 subunit c) [DRSC08204], what was measured?
mean ATP z-score: -0.329

With VhaM9.7-c (Vacuolar H[+] ATPase M9.7 subunit c) [DRSC30083], how do the results read?
mean ATP z-score: 0.233

For emei [DRSC10897], how do the results read?
mean ATP z-score: 0.651

Which result is listed for emei [DRSC22684]?
mean ATP z-score: 0.257

With Or85f (Odorant receptor 85f) [DRSC16769], what does the deposit list?
mean ATP z-score: 0.298

For Or85f (Odorant receptor 85f) [DRSC39742], what does the deposit list?
mean ATP z-score: 1.08

With Srg2 (Sting-regulated gene 2) [DRSC10681], what was measured?
mean ATP z-score: -0.627

With Srg2 (Sting-regulated gene 2) [DRSC24667], what does the deposit list?
mean ATP z-score: 0.0814

With CG5888 [DRSC01929], what was measured?
mean ATP z-score: 0.369

For CG5888 [DRSC28190], how do the results read?
mean ATP z-score: 0.868

For Inx6 (Innexin 6) [DRSC20579], what was measured?
mean ATP z-score: 0.304

What is on record for Inx6 (Innexin 6) [DRSC26299]?
mean ATP z-score: -0.635

With na (narrow abdomen) [DRSC19639], what was measured?
mean ATP z-score: 0.191

What did the screen give for na (narrow abdomen) [DRSC29828]?
mean ATP z-score: -0.0534

Which result is listed for eag (ether a go-go) [DRSC19067]?
mean ATP z-score: -0.0959

For eag (ether a go-go) [DRSC20328], what was measured?
mean ATP z-score: -0.139

What did the screen give for eag (ether a go-go) [DRSC28295]?
mean ATP z-score: -0.631

With Sfxn1-3 (Sideroflexin 1/3) [DRSC12183], how do the results read?
mean ATP z-score: 0.809

For CG32687 [DRSC18210], what does the deposit list?
mean ATP z-score: 0.55

Which result is listed for CG32687 [DRSC18237]?
mean ATP z-score: -0.323

What is on record for CG32687 [DRSC37079]?
mean ATP z-score: 0.724

For JhI-21 (Juvenile hormone Inducible-21) [DRSC02161], what does the deposit list?
mean ATP z-score: 0.332

For JhI-21 (Juvenile hormone Inducible-21) [DRSC29181], how do the results read?
mean ATP z-score: 0.567

How did the screen score CG31741 [DRSC02887]?
mean ATP z-score: -0.0327
